Assay results published in PubChem BioAssay AID540256 (National Center for Advancing Translational Sciences (NCATS), 2011).
Where “and” joins values, the source holds several entries; their conditions need not be identical. Equal entries are not always repeated. The whole screen tested about 300,000 compounds, of which about 3,700 (1.2%) were called active. Inconclusive means that the source gave no clear call. Such entries were picked first, then a sample of the others. The call rests on the fitted dose curve; tested in HEK293 cells. Potencies of inconclusive entries are doubtful fits and often do not repeat.

Assay: qHTS for Inhibitors of binding or entry into cells for Lassa Virus; further: nearly all actives have a fitted effect of over 50% in size
Conditions: Lassa virus pseudotype entry inhibition, cell reporter; activity change, negative = inhibition: at 37.9 µM (top of the series) unless noted
On the % scale 0 is the no-effect control and ±100 the full control effect; potency means the concentration at half of the fitted maximal effect.

| SMILES | Potency | activity change, negative = inhibition |
| --- | --- | --- |
| Cc1nn(C)c(C)c1CN(Cc1nc(-c2cc(F)ccc2F)oc1C)C1CC1 | inconclusive: 10 µM [inhibitor, partial curve, poor fit] | – |
| Cc1onc(-c2ccccc2Cl)c1C(=O)NC(=S)NCCc1ccccc1 | inconclusive: 17.8 µM [inhibitor, single point] | – |
| O=C(CSc1cccc2cccnc12)N1CCCC1 | inconclusive: 35.5 µM [inhibitor, single point] | – |
| O=C(COC(=O)CN1C(=O)NC2(CCCC2)C1=O)Nc1c(Cl)cccc1C(F)(F)F | – | inactive: 11.1% |
| Cc1cc(-c2ccc(C(C)C)c(S(=O)(=O)N3CC(=O)Nc4ccccc43)c2)on1 | inconclusive: 11.2 µM [inhibitor, partial curve, poor fit] | – |
| CCn1c2ccccc2c2cc(NC(=O)c3ccc(Br)o3)ccc21 | – | inactive: -25% |
| CCOc1ccc(NS(=O)(=O)N(C)C)cc1 | – | inactive: 1.02% |
| Cc1ccc(NNC(=O)C(O)(c2cccc(C(F)(F)F)c2)c2cccc(C(F)(F)F)c2)cc1 | inconclusive: 22.4 µM [inhibitor, single point] | – |
| COc1cc(OC)cc(C(=O)Nc2ccc(-n3cnnn3)c(C)c2)c1 | – | inactive: -0.22% |
| O=c1c2ccccc2nnn1CSc1nnc(C2COc3ccccc3O2)n1-c1ccccc1 (configuration not stated) | inconclusive: 29.1 µM [inhibitor, single point] | – |
| CCCN(CC(=O)Nc1ccccc1C)C(=O)c1ccc(-c2ccccc2)cc1 | inconclusive: 22.4 µM [inhibitor, single point] | – |
| CN(C)C(=O)c1ccc(Nc2ncnc3sc4c(c23)CCCCC4)cc1 | – | inactive: 1.93% [at 46.1 µM] |
| COc1cccc(C(C2=C(O)CC(C)(C)CC2=O)C2C(=O)CC(C)(C)CC2=O)c1 (configuration not stated) | inconclusive: 15.8 µM [activator, partial curve, poor fit] | – |
| CN(Cc1ccccc1)C(=O)c1nc(-c2ccc(Cl)cc2)n2c1CCCCC2 | – | inactive: -15.4% [at 46.1 µM] |
| COc1ccc(-n2c(-c3ccc(Br)cc3)c[n+]3c2SC(C)C3)cc1 (configuration not stated) | inconclusive: 12.6 µM [inhibitor, partial curve, poor fit] | – |
| COc1ccc(/C=N/NC(=O)c2nc(Cl)c(Cl)c(N)c2Cl)cc1COc1ccc(F)cc1F | inconclusive: 15.8 µM [inhibitor, single point] | – |
| COc1ccc(C2/C(=C(/O)c3ccc(F)cc3)C(=O)C(=O)N2CCCN(C)C)cc1 (configuration not stated) | – | inactive: 21.8% |
| Clc1ccc(CO/N=C/c2c(-c3ccccc3)nc3n2CCS3)c(Cl)c1 | inconclusive: 1.03 µM [inhibitor, partial curve, poor fit] | – |
| CC(=O)Nc1ccc(NC(=O)c2ccc3c(c2)N(Cc2cccc(Cl)c2)C(=O)c2ccccc2S3(=O)=O)cc1 | – | inactive: -18.2% [at 46.1 µM] |
| CCn1c(CN2CCCCC2)nc2cc(NC(=O)c3cc(OC)c(OC)c(OC)c3)ccc21 | – | inactive: -2.98% [at 46.1 µM] |
| CC(OC(=O)[C@H](C)NC(=O)c1ccccc1Cl)C(=O)NCc1ccc2c(c1)OCO2 (some centres not stated) | – | inactive: -0.172% |
| Cc1ccc(-c2ccc(SCC(=O)NCC3CCCO3)nn2)cc1 (configuration not stated) | – | inactive: -12.5% |
| CCOC1=C(C#N)CC2(CC1)c1ccccc1-c1ccccc12 | – | inactive: -3.28% [at 46.1 µM] |
| CCOC(=O)C1=C(C)OC(N)=C(C#N)C1c1cc2ccccc2nc1N1CCCCC1 (configuration not stated) | inconclusive: 3.98 µM [activator, partial curve, poor fit] | – |

An excerpt of the results above, as a working copy:

| SMILES | Potency | activity change, negative = inhibition |
| --- | --- | --- |
| Cc1onc(-c2ccccc2Cl)c1C(=O)NC(=S)NCCc1ccccc1 | inconclusive: 17.8 µM [inhibitor, single point] | – |
| O=C(CSc1cccc2cccnc12)N1CCCC1 | inconclusive: 35.5 µM [inhibitor, single point] | – |
| O=C(COC(=O)CN1C(=O)NC2(CCCC2)C1=O)Nc1c(Cl)cccc1C(F)(F)F | – | inactive: 11.1% |
| Cc1cc(-c2ccc(C(C)C)c(S(=O)(=O)N3CC(=O)Nc4ccccc43)c2)on1 | inconclusive: 11.2 µM [inhibitor, partial curve, poor fit] | – |
| CCn1c2ccccc2c2cc(NC(=O)c3ccc(Br)o3)ccc21 | – | inactive: -25% |
| CCOc1ccc(NS(=O)(=O)N(C)C)cc1 | – | inactive: 1.02% |
| Cc1ccc(NNC(=O)C(O)(c2cccc(C(F)(F)F)c2)c2cccc(C(F)(F)F)c2)cc1 | inconclusive: 22.4 µM [inhibitor, single point] | – |
| COc1cc(OC)cc(C(=O)Nc2ccc(-n3cnnn3)c(C)c2)c1 | – | inactive: -0.22% |
| O=c1c2ccccc2nnn1CSc1nnc(C2COc3ccccc3O2)n1-c1ccccc1 (configuration not stated) | inconclusive: 29.1 µM [inhibitor, single point] | – |
| CCCN(CC(=O)Nc1ccccc1C)C(=O)c1ccc(-c2ccccc2)cc1 | inconclusive: 22.4 µM [inhibitor, single point] | – |
| CN(C)C(=O)c1ccc(Nc2ncnc3sc4c(c23)CCCCC4)cc1 | – | inactive: 1.93% [at 46.1 µM] |
| COc1cccc(C(C2=C(O)CC(C)(C)CC2=O)C2C(=O)CC(C)(C)CC2=O)c1 (configuration not stated) | inconclusive: 15.8 µM [activator, partial curve, poor fit] | – |
| CN(Cc1ccccc1)C(=O)c1nc(-c2ccc(Cl)cc2)n2c1CCCCC2 | – | inactive: -15.4% [at 46.1 µM] |
| COc1ccc(-n2c(-c3ccc(Br)cc3)c[n+]3c2SC(C)C3)cc1 (configuration not stated) | inconclusive: 12.6 µM [inhibitor, partial curve, poor fit] | – |
| COc1ccc(/C=N/NC(=O)c2nc(Cl)c(Cl)c(N)c2Cl)cc1COc1ccc(F)cc1F | inconclusive: 15.8 µM [inhibitor, single point] | – |
| COc1ccc(C2/C(=C(/O)c3ccc(F)cc3)C(=O)C(=O)N2CCCN(C)C)cc1 (configuration not stated) | – | inactive: 21.8% |
| Clc1ccc(CO/N=C/c2c(-c3ccccc3)nc3n2CCS3)c(Cl)c1 | inconclusive: 1.03 µM [inhibitor, partial curve, poor fit] | – |
| CC(=O)Nc1ccc(NC(=O)c2ccc3c(c2)N(Cc2cccc(Cl)c2)C(=O)c2ccccc2S3(=O)=O)cc1 | – | inactive: -18.2% [at 46.1 µM] |
| CCn1c(CN2CCCCC2)nc2cc(NC(=O)c3cc(OC)c(OC)c(OC)c3)ccc21 | – | inactive: -2.98% [at 46.1 µM] |

More compounds

| SMILES | Potency | activity change, negative = inhibition |
| --- | --- | --- |
| Oc1ccc(CNCC2COc3ccccc3O2)cc1 (configuration not stated) | inconclusive: 35.5 µM [activator, single point] | – |
| COc1ccc(N(C(=O)c2ccco2)C(C(=O)NC2CCCC2)c2cccs2)c(OC)c1 (configuration not stated) | inconclusive: 35.5 µM [inhibitor, single point] | – |
| Cc1ccc2nc(SCc3nc4ccccc4c(=O)[nH]3)[nH]c2c1 | inconclusive: 2.51 µM [inhibitor, partial curve, poor fit] | – |
| Cc1cc(N2CCN(Cc3cn(C)nc3-c3cccc(Cl)c3)CC2)cc(C)n1 | inconclusive: 12.6 µM [inhibitor, partial curve] | – |
| COc1cccc(NC(=O)CCCNC(=O)Cn2cnc3sc(C)c(C)c3c2=O)c1 | – | inactive: 0.152% |
| O=C(CN(C(=O)c1csnn1)c1cccc2c1CCCC2)NCc1ccccc1 | inconclusive: 7.08 µM [inhibitor, full curve] | – |
| CCOc1ccc(CCNC(=O)c2cnc3sc(N4CCCC4)nn3c2=O)cc1 | inconclusive: 7.94 µM [inhibitor, partial curve, poor fit] | – |
| CC(=O)NC1CCCc2c1cnn2-c1ccc(C(C)(C)C)cc1 (configuration not stated) | – | inactive: -23.1% |
| Cc1ccc(CCNc2ccc3ccccc3c2)cn1 | inconclusive: 35.5 µM [inhibitor, single point] | – |
| CN1CCN(c2ccc(NC(=S)NC(=O)/C=C/c3ccco3)cc2)CC1 | – | inactive: 21.9% [at 46.1 µM] |
| CCOC(=O)N1CCN(C(=O)CSc2ncccn2)CC1 | – | inactive: 10.5% |
| CCCCOC(=O)c1ccc(NC(=O)/C=C/c2cccs2)cc1 | inconclusive: 10 µM [inhibitor, partial curve, poor fit] | – |
| CCOC(=O)C1=C(C)NC(C)=C(C(=O)OCC)C1C(=O)OCC(=O)N(C)C1CCS(=O)(=O)C1 (configuration not stated) | – | inactive: -2.99% |
| Cc1cc(-c2ccccc2)nc(N2CCC(C(=O)NC(C)C)CC2)n1 | inconclusive: 29.1 µM [inhibitor, single point] | – |
| Cc1ccccc1CN1C(=O)c2ccccc2S(=O)(=O)c2ccc(C(=O)OCC3CCCO3)cc21 (configuration not stated) | – | inactive: 0.141% [at 46.1 µM] |
| COc1ccc(NC(=O)c2cccs2)cc1O | – | inactive: -15.3% |
| CC(C)N1CC2=C(C1=O)C(c1ccc(O)cc1)NC(=O)N2C (configuration not stated) | inconclusive: 3.16 µM [activator, full curve, poor fit] | – |
| CCN(CC)CCN(C)C(=O)CCc1nnc(-c2ccc(C)s2)o1 | – | inconclusive: 33.7% [activator] |
| O=C(c1cc2nc(-c3ccco3)cc(C(F)(F)F)n2n1)N1CCN(c2ccc(F)cc2)CC1 | inconclusive: 9.2 µM [inhibitor, partial curve] | – |
| Cc1cc(C(=O)N/N=C2\CCCC(C)C2)n[nH]1 (configuration not stated) | – | inactive: -0.495% |
| O=c1c2cc(Br)ccc2nc(-c2cccc(Cl)c2)n1O | inconclusive: 10 µM [inhibitor, partial curve, poor fit] | – |
| CC1(C)CC(=O)C2=C(C1)NC(SCC(=O)Nc1ccccc1)=C(C#N)C2c1ccco1 (configuration not stated) | inconclusive: 1 µM [inhibitor, partial curve, poor fit] | – |
| CN(CC(=O)NCCN1CCOCC1)S(=O)(=O)c1ccc(Cl)cc1 | – | inactive: 2.84% |
| Cc1ccc2c(CC(=O)NCC(=O)Nc3c(C)cccc3C)coc2c1 | inconclusive: 0.631 µM [activator, single point] | – |

| SMILES | Potency | activity change, negative = inhibition |
| --- | --- | --- |
| COc1ccc(-c2cc3ccc(O)c(CN4CCC(C)CC4)c3oc2=O)cc1OC | – | inactive: 3.05% [at 46.1 µM] |
| CC1CCN(C(=O)COC(=O)c2ccc(Br)o2)CC1 | inconclusive: 29.1 µM [activator, single point] | – |
| Cc1cc(/C=C2/NC(=O)N(c3ccccc3)C2=O)c(C)n1-c1cccnc1 | – | inactive: -7.45% |
| CC(CN1c2ccccc2Sc2ccccc21)N(C)C (configuration not stated) | inactive and inconclusive: 20.6 µM [inhibitor, partial curve] | – |
| COc1ccc(OC)c(Cc2nnc(CCC(=O)NC3CCCC3)o2)c1 | – | inactive: 0.521% |
| CCN(C(=O)COC(=O)c1cccc(S(=O)(=O)NCc2ccccc2)c1)c1ccccc1 | inconclusive: 6.31 µM [inhibitor, full curve] | – |
| CC(=O)n1c(Cl)c(NC(=O)CCl)c2ccccc21 | inconclusive: 20.6 µM [inhibitor, single point] | – |
| O=C(c1ccc(S(=O)(=O)Cc2cc(F)ccc2F)c([N+](=O)[O-])c1)N1CCCC1 | – | inactive: 6.5% |
| Cc1cc(C(=O)O)ccc1N/C=C1\CCCC(C)C1=O (configuration not stated) | active: 12.6 µM | – |
| C(=N\Nc1ccc2nncn2n1)/c1ccccn1 | inconclusive: 20 µM [inhibitor, single point] | – |
| N#CCCN(C(=O)COC(=O)CSc1ccc(Cl)cc1)c1ccccc1 | – | inactive: 8.32% |
| N#Cc1cn(C2OC(CO)C(O)C2O)c2ncnc(N)c12 (configuration not stated) | active: 0.631 µM | – |
| Cc1ccc2cc(C#N)c(NCCCNC(=O)C3CCCO3)nc2c1 (configuration not stated) | inconclusive: 0.0206 µM [inhibitor, full curve] | – |
| CCOC(=O)c1c(C)nn(-c2ccc(NC(=O)/C=C/C(=O)O)cc2)c1C | inconclusive: 2 µM [inhibitor, partial curve, poor fit] | – |
| Cc1cccc2c1N(CC(=O)OC(C)C)C(=O)C2=O | inconclusive: 32.6 µM [inhibitor, single point] | – |
| CCC12CC3CC(C1)CC(C(=O)Nc1nn[nH]n1)(C3)C2 | inconclusive: 7.3 µM [inhibitor, partial curve, poor fit] | – |
| C[C@@H](C(=O)Nc1ccc2ccccc2c1)[C@@H]1C[C@@]1(C)[C@@H](NC(=O)c1ccccc1)c1ccccc1 | – | inactive: 0.631% |
| CCc1ccc(OCC(=O)NC(NC(=S)Nc2ccc(Cl)cc2)C(Cl)(Cl)Cl)cc1 (configuration not stated) | inconclusive: 11.2 µM [inhibitor, partial curve] | – |
| Cc1ccc2nc(N3CCN(c4ccccc4)CC3)c(C=O)c(=O)n2c1 | inconclusive: 14.1 µM [activator, partial curve, poor fit] | – |
| CNS(=O)(=O)c1cccc(C(=O)OCC(=O)Nc2nc(OC)cc(OC)n2)c1 | – | inactive: -25.4% |
| O=C(Nc1ccc(C(F)(F)F)cc1)c1ccccc1Br | – | inactive: 12.9% |
| Cc1ccc(-c2nnc(SCC(=O)NCC3CCCO3)nc2-c2ccc(C)cc2)cc1 (configuration not stated) | – | inactive: -4.79% [at 46.1 µM] |
| CC(=O)Nc1ccc2c(COC(=O)[C@H](C)N3C(=O)C4CCCCC4C3=O)cc(=O)oc2c1 (some centres not stated) | inconclusive: 3.55 µM [activator, full curve] | – |
| O=C(COC(=O)c1ccccn1)Nc1nc(-c2ccccc2)cs1 | – | inactive: -6.31% [at 46.1 µM] |
